This passage reports binding results from patent publication US20020168359A1.

One assay concerns the target T1, myc-tagged TRADD (UniProt Q15628).
T1 sequence (looked up): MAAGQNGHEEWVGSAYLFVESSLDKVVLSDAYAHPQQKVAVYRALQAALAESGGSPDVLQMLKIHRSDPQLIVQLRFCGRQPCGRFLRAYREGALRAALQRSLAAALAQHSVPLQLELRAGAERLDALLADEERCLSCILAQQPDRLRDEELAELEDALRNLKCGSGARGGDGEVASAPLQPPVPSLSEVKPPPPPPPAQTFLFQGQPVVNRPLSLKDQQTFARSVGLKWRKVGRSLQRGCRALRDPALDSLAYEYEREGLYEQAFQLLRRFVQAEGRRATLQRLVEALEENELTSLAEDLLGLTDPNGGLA
The assay can be described thus: co-immunoprecipitation from co-transfected 293 cells (FLAG M2 affinity gel, immunoblot with anti-myc-HRP).

The target of the next assay is T2, FADD, Q13158.
T2 chain: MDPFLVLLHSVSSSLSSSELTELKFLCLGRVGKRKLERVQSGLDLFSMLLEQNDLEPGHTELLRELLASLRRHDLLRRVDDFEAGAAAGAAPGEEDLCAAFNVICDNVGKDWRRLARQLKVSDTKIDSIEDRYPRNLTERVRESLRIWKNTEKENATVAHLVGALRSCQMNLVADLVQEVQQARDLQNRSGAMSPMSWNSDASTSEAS
The assay can be described thus: co-immunoprecipitation from co-transfected 293 cells (FLAG M2 affinity gel, immunoblot with anti-FADD). As to conditions: remark: other sources report otherwise.

No constants are given. Whether binding was seen depends on the method and setting. Binding seen in cells or lysates may run through a third protein. Some entries that bind do so weakly or less than the wild type. Tags and fused reporters may be left off the sequences shown.

B1: FLAG-DR3 (receptor, UniProt Q93038 25-417, looked up)
chain: QGGTRSPRCDCAGDFHKKIGLFCCRGCPAGHYLKAPCTEPCGNSTCLVCPQDTFLAWENHHNSECARCQACDEQASQVALENCSAVADTRCGCKPGWFVECQVSQCVSSSPFYCQPCLDCGALHRHTRLLCSRRDTDCGTCLPGFYEHGDGCVSCPTSTLGSCPERCAAVCGWRQMFWVQVLLAGLVVPLLLGATLTYTYRHCWPHKPLVTADEAGMEALTPPPATHLSPLDSAHTLLAPPDSSEKICTVQLVGNSWTPGYPETQEALCPQVTWSWDQLPSRALGPAAAPTLSPESPAGSPAMMLQPGPQLYDVMDAVPARRWKEFVRTLGLREAEIEAVEVEIGRFRDQQYEMLKRWRQQQPAGLGAVYAALERMGLDGCVEDLRSRLQRGP
Turning to B1, in the assay with myc-tagged TRADD, the binding entry is “binds”.

B2: FLAG-CD95, P25445 26-335 (receptor, UniProt P25445 26-335, looked up)
chain: QVTDINSKGLELRKTVTTVETQNLEGLHHDGQFCHKPCPPGERKARDCTVNGDEPDCVPCQEGKEYTDKAHFSSKCRRCRLCDEGHGLEVEINCTRTQNTKCRCKPNFFCNSTVCEHCDPCTKCEHGIIKECTLTSNTKCKEEGSRSNLGWLCLLLLPIPLIVWVKRKEVQKTCRKHRKENQGSHESPTLNPETVAINLSDVDLSKYITTIAGVMTLSQVKGFVRKNGVNEAKIDEIKNDNVQDTAEQKVQLLRNWHQLHGKKEAYDTLIKDLKKANLCTLAEKIQTIILKDITSDSENSNFRNEIQSLV
For B2, the binding entry in the assay with FADD, Q13158 is given as “binds”.
